The source of these data is paper PMC4506582.

Results are given in words; binding and its absence hold for the method and conditions named.

This assay addresses PfCoronin 1-388 (N-terminal beta-propeller domain of Plasmodium falciparum coronin) (Plasmodium falciparum) (UniProt Q8I4S2). Nature of the assay: SEC; Superdex 200 10/300 GL, 30 mM Tris pH 8.0, 300 mM NaCl, 5 mM 2-mercaptoethanol; PfCor-N eluted at ~16 mL; both purified. A general note: In gel filtration, larger molecules generally elute earlier.

For the substance “PfCoronin 1-388 (N-terminal beta-propeller domain of Plasmodium falciparum coronin) (from UniProt Q8I4S2 1-388) (domain or fragment)”, the binding result is “no binding”.
